Experimental findings from article doi:10.1101/719815 (bioRxiv, 2019) are described below.

Common to all, as to assay: split reporter
For experiment [1], the target named is T1, CDC24_(428-759)CRU (yeast) (UniProt P11433).
T1 sequence: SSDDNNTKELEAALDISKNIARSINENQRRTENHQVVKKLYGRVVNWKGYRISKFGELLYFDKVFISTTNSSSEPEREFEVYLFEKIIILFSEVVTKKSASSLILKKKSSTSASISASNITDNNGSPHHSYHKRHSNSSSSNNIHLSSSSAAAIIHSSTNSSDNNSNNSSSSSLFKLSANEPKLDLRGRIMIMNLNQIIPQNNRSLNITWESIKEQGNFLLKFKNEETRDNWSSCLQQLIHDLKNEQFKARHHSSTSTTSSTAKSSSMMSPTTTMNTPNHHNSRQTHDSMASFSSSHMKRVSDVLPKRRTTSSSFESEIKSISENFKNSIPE

Experiment [2] concerns the target T2, Cdc24 extended by the Cub-RUra3 module (Cdc24CRU) (yeast) (UniProt P11433).
T2 sequence: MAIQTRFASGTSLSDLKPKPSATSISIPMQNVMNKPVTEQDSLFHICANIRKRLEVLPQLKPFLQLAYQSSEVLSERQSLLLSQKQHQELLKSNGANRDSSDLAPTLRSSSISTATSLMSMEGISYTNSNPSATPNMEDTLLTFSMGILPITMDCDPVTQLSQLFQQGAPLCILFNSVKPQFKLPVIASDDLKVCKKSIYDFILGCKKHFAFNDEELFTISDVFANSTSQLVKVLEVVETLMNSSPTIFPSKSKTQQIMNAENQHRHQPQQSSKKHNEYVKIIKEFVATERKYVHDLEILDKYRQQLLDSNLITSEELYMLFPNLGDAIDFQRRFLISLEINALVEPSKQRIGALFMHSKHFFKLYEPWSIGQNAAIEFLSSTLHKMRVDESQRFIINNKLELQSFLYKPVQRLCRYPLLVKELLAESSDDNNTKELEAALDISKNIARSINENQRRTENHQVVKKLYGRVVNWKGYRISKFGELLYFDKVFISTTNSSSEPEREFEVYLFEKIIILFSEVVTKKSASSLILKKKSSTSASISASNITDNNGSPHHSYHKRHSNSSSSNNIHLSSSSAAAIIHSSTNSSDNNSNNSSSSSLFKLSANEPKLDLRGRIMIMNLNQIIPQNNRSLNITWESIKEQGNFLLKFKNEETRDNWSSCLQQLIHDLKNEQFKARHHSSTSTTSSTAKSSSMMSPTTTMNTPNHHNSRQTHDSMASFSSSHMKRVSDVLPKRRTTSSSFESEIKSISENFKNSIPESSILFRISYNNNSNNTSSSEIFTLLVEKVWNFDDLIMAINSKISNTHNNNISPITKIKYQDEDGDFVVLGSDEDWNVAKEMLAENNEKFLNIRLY

Experiment [3] addresses T2, Cdc24 extended by the Cub-RUra3 module (Cdc24CRU) (yeast). The source holds these as a separate data set.
In experiment [4] the target is T3, Cdc24_(428-854D820A) CRU (yeast) (UniProt P11433).
T3 sequence: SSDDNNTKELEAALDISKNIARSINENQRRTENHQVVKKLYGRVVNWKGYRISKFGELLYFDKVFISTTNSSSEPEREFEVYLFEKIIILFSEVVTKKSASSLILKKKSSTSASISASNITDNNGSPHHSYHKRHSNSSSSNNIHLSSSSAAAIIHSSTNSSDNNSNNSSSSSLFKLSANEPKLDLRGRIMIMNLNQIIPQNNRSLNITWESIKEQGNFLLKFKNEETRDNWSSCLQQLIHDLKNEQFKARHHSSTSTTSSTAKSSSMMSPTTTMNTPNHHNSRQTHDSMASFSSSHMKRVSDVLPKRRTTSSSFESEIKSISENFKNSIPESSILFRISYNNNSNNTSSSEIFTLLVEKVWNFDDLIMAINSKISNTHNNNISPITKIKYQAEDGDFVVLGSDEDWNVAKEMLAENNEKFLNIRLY

Experiment [5] addresses T4, Cdc24_(428-854)CRU (yeast) (UniProt P11433).
T4 sequence: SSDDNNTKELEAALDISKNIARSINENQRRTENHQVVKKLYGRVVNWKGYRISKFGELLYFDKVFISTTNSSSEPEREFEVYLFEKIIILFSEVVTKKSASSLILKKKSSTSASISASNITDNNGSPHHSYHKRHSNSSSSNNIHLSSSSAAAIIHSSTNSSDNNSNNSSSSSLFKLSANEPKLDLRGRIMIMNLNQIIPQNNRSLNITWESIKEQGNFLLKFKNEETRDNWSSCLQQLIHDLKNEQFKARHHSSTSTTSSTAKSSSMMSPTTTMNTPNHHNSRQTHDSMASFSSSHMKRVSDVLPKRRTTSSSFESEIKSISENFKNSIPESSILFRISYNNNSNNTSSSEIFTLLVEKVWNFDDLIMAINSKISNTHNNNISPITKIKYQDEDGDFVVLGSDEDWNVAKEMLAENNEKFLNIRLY

In experiment [6] the target is T2, Cdc24 extended by the Cub-RUra3 module (Cdc24CRU) (yeast). The source holds these as a separate data set.

Like-named read-outs stand apart in the source and are kept apart here. Results are given in words; binding and its absence hold for the method and conditions named. Binding seen in cells or lysates may run through a third protein. Some entries that bind do so weakly or less than the wild type.

B1: Nub-Cdc11 (protein, UniProt P32458 1-415)
chain: MSGIIDASSALRKRKHLKRGITFTVMIVGQSGSGRSTFINTLCGQQVVDTSTTILLPTDTSTEIDLQLREETVELEDDEGVKIQLNIIDTPGFGDSLDNSPSFEIISDYIRHQYDEILLEESRVRRNPRFKDGRVHCCLYLINPTGHGLKEIDVEFIRQLGSLVNIIPVISKSDSLTRDELKLNKKLIMEDIDRWNLPIYNFPFDEDEISDEDYETNMYLRTLLPFAIIGSNEVYEMGGDVGTIRGRKYPWGILDVEDSSISDFVILRNALLISHLHDLKNYTHEILYERYRTEALSGESVAAESIRPNLTKLNGSSSSSTTTRRNTNPFKQSNNINNDVLNPASDMHGQSTGENNETYMTREEQIRLEEERLKAFEERVQQELLLKRQELLQREKELREIEARLEKEAKIKQEE
Consider B1, for which the binding entry was “no binding” in experiment [1]; “binds” in experiment [2]; “binds” in experiment [3]; “binds” in experiment [4]; “binds” in experiment [5]; “binds” in experiment [6].
